Assay results published in the supplement of paper PMC8256030.
Where “and” joins values, the source holds several entries; their conditions need not be identical. Equal values may be shown once. The list shows a part of the results. Repeats in this data set agree poorly, so a single value says little.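 HEK293T cells were given each compound shortly before transfection with a reporter in which red mCherry is followed by the SARS-CoV-2 frameshift element and then GFP in the −1 frame, so GFP appears only after frameshifting.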

These molecules were tested on HEK293T (assay: percent viability (nuclei count) relative to control; higher = more viable cells). Conditions: 10 µM; 24 h.

SMILES | percent viability
CC(C)C[C@H](NC(=O)[C@H](Cc1ccccc1)NC(=O)c1cnccn1)B(O)O [Bortezomib] | 87.4%
CC(=O)Nc1ccc(OCC(O)CNC(C)C)cc1 (configuration not stated) [practolol] | 152%
C[C@]12C=CC(=O)C=C1CC[C@H]1[C@@H]3CC[C@](O)(C(=O)CO)[C@@]3(C)C[C@H](Cl)[C@@]12Cl [dichlorisone] | 236%
O=C(O)CCCC[C@@H]1SC[C@@H]2NC(=O)N[C@@H]21 [biotin] | 185% and 260%
NC(CCC(=O)O)C(=O)O (configuration not stated) | 239%
O=C1c2ccccc2S(=O)(=O)N1CCCCN1CCN(c2ncccn2)CC1 [ipsapirone] | 103%
NS(=O)(=O)c1ccc(NC(=O)CCC(=O)O)cc1 [sulfasuccinamide] | 178%
CNC(=O)CN(CCN(CCN(CC(=O)[O-])CC(=O)NC)CC(=O)[O-])CC(=O)[O-].[Gd+3] [Omniscan] | 267%
O/N=C/c1cc[n+](CCC[n+]2ccc(/C=N/O)cc2)cc1 [trimedoxime bromide] | 118%
Cc1c(C(N)=O)cc([N+](=O)[O-])cc1[N+](=O)[O-] [dinitolmide] | 268%
CCCCNC(=O)NS(=O)(=O)c1ccc(N)cc1 [carbutamide] | 161%
CCOc1ccccc1OCC(O)CO (configuration not stated) [guaietolin] | 182%
Cc1[nH]c(=O)c(C#N)cc1-c1ccc2nccn2c1 [olprinone] | 274%
Cc1ncc2c(c1O)COC2c1ccc(Cl)cc1 (configuration not stated) [cicletanine] | 43.2%
COc1ccccc1OCC(O)COC(N)=O (configuration not stated) [methocarbamol] | 265%
O=S1(=O)CCN(CN2CCS(=O)(=O)NC2)CN1 [taurolidine] | 85.7%
CN(C)CCC=C1c2ccccc2C=Cc2ccccc21 | 416%
CCCCCCCCCCCCCCCC(=O)NCCO [palmidrol] | 250%
COc1ccc2cc([C@H](C)CO)ccc2c1 | 330%

SMILES | percent viability
CCC[S+]([O-])c1ccc2[nH]c(NC(=O)OC)nc2c1 (configuration not stated) [albendazole oxide] | 201%
Cc1c(Cl)cccc1Nc1ncccc1C(=O)O [clonixin] | 197%
O=C(O)c1cn(-c2ccc(F)cc2)c2cc(N3CCNCC3)c(F)cc2c1=O [sarafloxacin] | 291% and 182%
CCC/C=C\C=C/C(=O)N[C@@H](CC(N)=O)C(=O)NC(CC(N)=O)C(=O)N[C@@H](C(=O)N[C@H](CCCN)C(=O)N[C@@H](C(=O)N[C@@H](C(=O)N[C@@H](C(=O)N[C@H](C(=O)N[C@@H](Cc1ccccc1)C(=O)N[C@H](CCCN)C(=O)NC(C(=O)N[C@H](C(=O)NC(C(=O)NCC(=O)N[C@@H](CC(C)C)C(=O)N[C@H](C)C(=O)NC(C(=O)O)C1CCC(O)C(Cl)C1)C1CCC(O)CC1)[C@H](C)O)C1CCC(O)CC1)[C@H](C)O)C1CCC(O)CC1)C1CCC(O)CC1)[C@H](C)O)C1CCC(O)CC1 (some centres not stated) | 176%
Cn1c(=O)c2c(ncn2CC(O)CO)n(C)c1=O (configuration not stated) [diprophylline] | 146%
N/C(CC(O)COc1cccc2ccccc12)=N/O (configuration not stated) [nadoxolol] | 405%
CCCOc1ccc(C(=O)OCCN(CC)CC)cc1N | 360%
COc1cc(C)c2c(Oc3cccc(C(F)(F)F)c3)c(OC)cc(NC(C)CCCN)c2n1 (configuration not stated) [tafenoquine] | 140%
CCN(CC)CCOc1ccc2c(c1)C(=O)c1cc(OCCN(CC)CC)ccc1-2 | 244%
CCCCN1CCC(CNC(=O)c2c3n(c4ccccc24)CCCO3)CC1 [piboserod] | 89.9%
CCN(CC)CCOCCOC(=O)C(CC)(CC)c1ccccc1 [oxeladin] | 193%
CC1CCCC(C)N1 (configuration not stated) [nanofin] | 205%
Oc1c(Cl)cc(Cl)c2cccnc12 | 271%
C(=C(C1CCCCC1)C1CCCCC1)C1CCCCN1 (configuration not stated) [hexadiline] | 167%
C[C@@H]1CC[C@@]2(OC1)O[C@H]1C[C@H]3[C@@H]4CC[C@H]5C[C@@H](O[C@@H]6O[C@H](CO)[C@@H](O[C@@H]7O[C@H](CO)[C@@H](O)[C@H](O)[C@H]7O)[C@H](O)[C@H]6O)CC[C@]5(C)[C@H]4CC[C@]3(C)[C@H]1[C@@H]2C [tiqueside] | 56.6%
CN(C)CCCN1c2ccccc2CCc2ccccc21 [imipramine] | 315% and 219%
CN(C)C(=O)C(CC[N@+]1([O-])CC[C@@](O)(c2ccc(Cl)cc2)CC1)(c1ccccc1)c1ccccc1 [loperamide oxide] | 165%
CC(C)[C@H](N)C(=O)OCCOCn1cnc2c(=O)nc(N)[nH]c21 [Valaciclovir] | 203%

Looked up by compound from the entries so far, 2 records:
SMILES | percent viability
Cn1c(=O)c2c(ncn2CC(O)CO)n(C)c1=O (configuration not stated) [diprophylline] | 146%
CCN(CC)CCOCCOC(=O)C(CC)(CC)c1ccccc1 [oxeladin] | 193%
